PubChem BioAssay AID1259405 | NCATS, 2018
In all, the deposit lists about 50,000 reagents; below is a part drawn at random. About 4,000 of all reagents (8%) were called active. 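Mouse siRNA library applied to hamster cells; one well for each siRNA.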 Entries without a mark were called inactive. The numbers tell different reagents against one gene apart.

Aim: 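Silenced genes that increase secreted GFP made by CHO cells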 (primary screen)
Cells: Chinese hamster CHO-K1 ovary cells with stable secreted eGFP expression
Reagents: single siRNA against mouse genes, 0.8 pmol siRNA per well (2 µl of 400 nM stock)
Duration: 3 days
Measured: 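Percent of the per-plate non-targeting control median for intracellular GFP per well by laser scanning cytometry and for cell viability by ATP luminescence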
Scale: GFP, % of control: higher = more GFP per well, higher productivity; viability (ATP), % of control: higher = more viable cells (more ATP)
Rule for the call: 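a knock-down is called active if GFP reaches 120% or more of non-targeting control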

The first 3 entries, ahead of the listing:
no.	Target gene	reagent	GFP, % of control	viability (ATP), % of control
1	Serpinb13	1	65.1	84.7
2	Serpinb13	2	81.1	83
3	Serpinb13	3	52.1	90.4

The list itself, from the start:
no.	Target gene	reagent	GFP, % of control	viability (ATP), % of control
1	Serpinb13	1	65.1	84.7
2	Serpinb13	2	81.1	83
3	Serpinb13	3	52.1	90.4
4	Gltpd2 (glycolipid transfer protein domain containing 2)	1	60.8	40.5
5	Gltpd2 (glycolipid transfer protein domain containing 2)	2	79.5	80.4
6	Gltpd2 (glycolipid transfer protein domain containing 2)	3	92	101
7	Tex9 (testis expressed gene 9)	1	81.6	79.1
8	Tex9 (testis expressed gene 9)	2	84.5	78.9
9	Tex9 (testis expressed gene 9)	3	88.1	63.6
10	Inka1 (inka box actin regulator 1)	1	58.9	62.8
11	Inka1 (inka box actin regulator 1)	2	85.8	85.1
12	Inka1 (inka box actin regulator 1)	3	73.1	105
13	Ankrd1 (ankyrin repeat domain 1)	1	120	97
14	Ankrd1 (ankyrin repeat domain 1)	2	72.3	65.6
15	Ankrd1 (ankyrin repeat domain 1)	3	101	86.9
16	Ranbp3 (RAN binding protein 3)	1	71.9	83.4
17	Ranbp3 (RAN binding protein 3)	2	101	76.2
18	Ranbp3 (RAN binding protein 3)	3	41.2	51
19	Fdxr (ferredoxin reductase)	1	52.9	78.6
20	Fdxr (ferredoxin reductase)	2	68.1	90.7
21	Fdxr (ferredoxin reductase)	3	71.6	80.5
22	Tpst1 (protein-tyrosine sulfotransferase 1)	1	72.7	101
23	Tpst1 (protein-tyrosine sulfotransferase 1)	2	63.1	123
24	Tpst1 (protein-tyrosine sulfotransferase 1)	3	112	137
25	Fam20b (FAM20B, glycosaminoglycan xylosylkinase)	1	77.9	81.9
26	Fam20b (FAM20B, glycosaminoglycan xylosylkinase)	2	60.2	35.1
27	Fam20b (FAM20B, glycosaminoglycan xylosylkinase)	3	81	88.8
28	Lbh (limb-bud and heart)	1	67.8	71.9
29	Lbh (limb-bud and heart)	2	52.7	48.8
30	Lbh (limb-bud and heart)	3	96.8	71.4
31	Or5k16 (olfactory receptor family 5 subfamily K member 16)	1	92.8	74.7
32	Or5k16 (olfactory receptor family 5 subfamily K member 16)	2	72.3	48.3
33	Or5k16 (olfactory receptor family 5 subfamily K member 16)	3	50.4	88.9
34	Clec10a (C-type lectin domain family 10, member A)	1	70.5	62.7
35	Clec10a (C-type lectin domain family 10, member A)	2	70.7	88.7
36	Clec10a (C-type lectin domain family 10, member A)	3	62.3	59
37	Reg4 (regenerating islet-derived family, member 4)	1	34.8	49
38	Reg4 (regenerating islet-derived family, member 4)	2	92.4	55.8
39	Reg4 (regenerating islet-derived family, member 4)	3	40	73.7
40	Dyrk3 (dual-specificity tyrosine phosphorylation regulated kinase 3)	1	115	164
41	Dyrk3 (dual-specificity tyrosine phosphorylation regulated kinase 3)	2	94.7	62.4
42	Dyrk3 (dual-specificity tyrosine phosphorylation regulated kinase 3)	3	87.7	78.9
43	Mycl (Mycl proto-oncogene, bHLH transcription factor)	1	90.1	76.5
44	Mycl (Mycl proto-oncogene, bHLH transcription factor)	2	73	75.6
45	Mycl (Mycl proto-oncogene, bHLH transcription factor)	3	88.7	83.5
46	Grpel1 (GrpE-like 1, mitochondrial)	1	102	63.2
47	Grpel1 (GrpE-like 1, mitochondrial)	2	129 (active)	84
48	Grpel1 (GrpE-like 1, mitochondrial)	3	115	164
49	Tmprss11f (transmembrane protease, serine 11f)	1	151 (active)	109
50	Tmprss11f (transmembrane protease, serine 11f)	2	53.7	62.2
51	Tmprss11f (transmembrane protease, serine 11f)	3	111	109
52	Bend7 (BEN domain containing 7)	1	43.7	72.4
53	Bend7 (BEN domain containing 7)	2	63.9	75.5
54	Bend7 (BEN domain containing 7)	3	9.26	10.8
55	Smpx (small muscle protein, X-linked)	1	83.1	89.8
56	Smpx (small muscle protein, X-linked)	2	69.3	73.4
57	Smpx (small muscle protein, X-linked)	3	64.6	74.5
